The values that follow come from PubChem BioAssay AID2685 (National Center for Advancing Translational Sciences (NCATS), 2010).

This is one part of the list. Further columns of the screen follow, without active or inactive calls. Most of these compounds were active or inconclusive in the main read-out, so they are no random draw. Potencies come from curve fits of mixed quality, noted in brackets.

A short description of the experiment: qHTS Assay for Lipid Storage Modulators in Drosophila S3 Cells.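 On cell number change: cells counted by Cell Tracker Red CMTPX staining in the red channel.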 The note with it: BODIPY lipid droplet fluorescence, 18-24 h; for cell number change: measured here: cell count max response, cells fed with added oleic acid. A digest of the protocol:
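Drosophila S3 cells loaded with oleic acid (400 uM, as added) and compounds at several concentrations; lipid droplets imaged by 488-nm laser-scanning cytometry, 500–530 nm intensity and object ratio to cell channel. Percent activity normalized to 20 uM Triacsin C.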
On the technique in general: Quantitative high-throughput screening tests each substance at several concentrations.

[1] abbreviates: measured here: lipid fluorescence (Fed channel) AC50, cells fed with added oleic acid.
The mark [2] stands for this setting: measured here: cell number channel AC50, cells fed with added oleic acid.

Usually AC50 stands for the concentration giving half of the maximal activity seen.

Take `CCOc1ccc(C2c3[nH]c4ccccc4c3CCN2Cc2cccn2-c2ncccn2)cc1` (stereo not given): the cell number change is 26.8%. Besides, the AC50 under setting [1] was 13 µM [rising, partial curve, poor fit].

Take `Cc1ccc(NC(=O)c2ccc(F)cc2F)cc1NS(C)(=O)=O`: the cell number change was determined as 56.2%.

Consider `Cc1ccc(C)c(Nc2ncnc(N)c2[N+](=O)[O-])c1`, for which the cell number change was -19.4%.

For the compound `O=S(=O)(NCCCN1CCOCC1)c1ccc(Cl)cc1`, the cell number change came out at 11.7%. For the same compound, under setting [1], the AC50 was 0.58 µM [rising, single point].

As to `Cc1cccc(C)c1OC(=O)CSc1nnc(-c2ccccc2)o1`, the cell number change was -43.1%. In addition, under setting [2], the AC50 was 29.1 µM [falling, single point]. Besides, the AC50 under setting [1] is 29.1 µM [falling, single point].

`COC(=O)c1[nH]c2ccccc2c1NC(=O)CN1CCN(c2cccc(Cl)c2)CC1`: the AC50 under setting [1] was 10.3 µM [falling, partial curve].

With `O=C(CSc1nnnn1Cc1ccccc1)Nc1cccc(F)c1`, the cell number change is -2.56%. Besides, the AC50 under setting [1] is 0.0651 µM [rising, partial curve, poor fit].

Consider `CC(=O)c1sc(C(=O)O)c(-c2ccco2)c1-c1ccco1`, for which the cell number change was -14.6%. Further, the AC50 under setting [1] was 2.06 µM [falling, full curve, poor fit].

Turning to `O=C(C(=O)N1CCN(c2ccccc2)CC1)c1cn(CC(=O)N2CCCCCC2)c2ccccc12`, the cell number change is 22%. For the same compound, the AC50 under setting [1] was 0.82 µM [falling, full curve, poor fit].

On to `Clc1ccc(-c2cnn3c(-c4ccncc4)ccnc23)cc1`, for which the cell number change was -17%. Further, the AC50 under setting [2] is 7.31 µM [falling, single point]. For the same compound, under setting [1], the AC50 was 20.6 µM [falling, single point].

`COC(=O)c1cc(S(=O)(=O)NCC2CCN(Cc3ccc(C)cc3)CC2)cn1C`: the cell number change worked out at 1.52%. The AC50 under setting [1] was 29.1 µM [rising, single point].

For `C=CCn1c(=O)c2ccccc2n2c(SCc3nc4ccccc4s3)nnc12`, the cell number change stood at 64.8%. Also, the AC50 under setting [2] was 0.164 µM [rising, full curve].

For the compound `S=c1[nH]nc(-c2ccco2)n1Cc1ccccc1`, the AC50 runs as follows: under setting [2], 3.26 µM [rising, partial curve, poor fit]; under setting [1], 1.03 µM [rising, full curve, poor fit].

With `O=C(N/N=C/c1ccc[nH]1)c1ccccc1OCc1ccc(F)cc1`, the cell number change was -12.7%. Further, the AC50 under setting [1] is 2.06 µM [rising, partial curve].

As for `COc1ccc(S(=O)(=O)Nc2ccc(S(=O)(=O)NCC3CCCO3)cc2)cc1` (stereo not given), the cell number change is -3.48%.

As to `CC(=O)Nc1ccc2sc(NC(=O)CN3CCOCC3)nc2c1`, the cell number change was -16.1%. Also, under setting [1], the AC50 is 0.731 µM [falling, single point].

For `COc1ccc(S(=O)(=O)N2CCOC23CCN(C(=O)c2ccc(Cl)cc2Cl)CC3)cc1`, the cell number change was determined as 21.5%. Also, the AC50 under setting [1] was 18.4 µM [falling, single point].

With `Cc1c(Cl)cccc1NC(=O)Cn1nnc(C(=O)NCc2cccs2)c1N`, the cell number change is 8.71%. Besides, under setting [2], the AC50 was 0.092 µM [rising, full curve, poor fit].

In the case of `Cc1ccc(N2C(=O)c3ccccc3C2Nc2ccccc2)nc1` (stereo not given), the cell number change was determined as 45.3%. The AC50 under setting [2] is 3.26 µM [rising, full curve]. Moreover, the AC50 under setting [1] is 6.51 µM [rising, partial curve].

In the case of `Cc1ccccc1Cn1cc(CCC(=O)N2CCOCC2)c2ccccc21`, the cell number change was determined as 16.2%. Moreover, the half-maximal activity concentration (AC50) under setting [2] was 0.058 µM [rising, full curve, poor fit].

Regarding `CCc1ccc(-c2csc(-c3c[nH]c4ccccc34)n2)cc1`, the cell number change was -45.5%. Also, under setting [2], the AC50 was 18.4 µM [falling, single point]. Also, the AC50 under setting [1] was 29.1 µM [falling, single point].

In the case of `COc1ccc(CCNC(=O)c2nnn(CC(=O)Nc3cccc(F)c3)c2N)cc1OC`, the cell number change is 9.63%.

`CCOC(=O)N1CCN(C(=O)CSc2ccc3nnc(CCNC(=O)c4ccc(OC)cc4)n3n2)CC1`: the cell number change was -14.7%. The AC50 under setting [1] was 5.8 µM [falling, full curve, poor fit].

Regarding `O=C(Nc1nnc(-c2ccco2)o1)c1ccc(Cl)s1`, the cell number change was -28.2%. For the same compound, the concentration at half-maximal activity (AC50) under setting [1] is 6.51 µM [falling, single point].

Regarding `Cc1ccc(C(=O)N2CCC3(CC2)NCCc2[nH]cnc23)cc1`, the cell number change stood at 12.7%. Besides, under setting [1], the AC50 was 3.66 µM [falling, partial curve, poor fit].

Regarding `CCN(CC)CCOc1cccc(C(C)C)c1`, the cell number change is -52.5%. In addition, the AC50 under setting [2] is 6.51 µM [falling, full curve, poor fit]. Further, the half-maximal activity concentration (AC50) under setting [1] was 5.17 µM [falling, full curve].

On to `CCCn1c2ccccc2c2nnc(SCC(=O)Nc3cc(C)on3)nc21`, for which the AC50 under setting [2] is 0.13 µM [rising, full curve, poor fit].

Take `O=C(NCc1ccc2c(c1)OCO2)c1ccc(Cl)c(S(=O)(=O)N2CCOCC2)c1`: the cell number change worked out at 44.5%. In addition, the AC50 under setting [2] was 0.58 µM [rising, full curve, poor fit]. Further, the AC50 under setting [1] was 3.66 µM [rising, partial curve, poor fit].

With `CC1Cc2cc(S(=O)(=O)N3CCC(C(=O)N(C)Cc4ccco4)CC3)ccc2N1C(=O)C1CCC1` (stereo not given), the cell number change was -8.02%. The AC50 under setting [1] is 29.1 µM [rising, single point].

In the case of `CCc1ccccc1NC(=O)CN(C)C(=O)CSc1nn(-c2ccccc2)c(=S)s1`, the cell number change stood at 3.38%. Also, the AC50 under setting [1] is 0.651 µM [rising, full curve, poor fit].

For `Cc1ccc(CNc2ccc([N+](=O)[O-])cc2C(N)=O)cc1`, the cell number change is -34.6%. In addition, the AC50 under setting [2] is 9.2 µM [falling, partial curve]. Moreover, under setting [1], the AC50 is 20.6 µM [falling, single point].

`CCN(CC)S(=O)(=O)c1ccc(N2CCOCC2)c(NC(=O)COc2ccccc2)c1`: the cell number change is -47.1%. Besides, the AC50 under setting [2] is 23.1 µM [falling, single point]. Moreover, under setting [1], the AC50 is 29.1 µM [falling, single point].

For the compound `COc1cc(OC)c(C(=O)NC2CCCCCC2)cc1OC`, the cell number change turned out to be 158%. In addition, the AC50 under setting [2] was 3.66 µM [falling, partial curve].

For `COc1ccc(-c2nc(CCNC(=O)c3cccs3)cs2)cc1`, the cell number change is -16.1%. Under setting [1], the AC50 is 6.51 µM [rising, partial curve].

With `Cc1csc(NC(=O)/C=C/c2ccc3c(c2)OCO3)n1`, the cell number change is 6.97%. The AC50 under setting [1] was 0.164 µM [rising, full curve].

As for `O=C(c1ccco1)N1CCN(C(=O)c2ccccc2OC(=O)C23CC4CC(CC(C4)C2)C3)CC1`, the cell number change was -0.349%.

On to `COc1cc(SC)ccc1C(=O)NCCOc1c(C)cc(C)cc1C`, for which the cell number change was determined as 6.15%.

For the compound `CCOC(=O)c1cc2c(=O)n3ccccc3nc2n(CCCOC)c1=NC(C)=O`, the cell number change is -24.3%. Further, under setting [1], the AC50 is 2.59 µM [falling, partial curve, poor fit].

Turning to `COc1ccc(-c2cc(=O)oc3cc(OC(C)C(=O)NC(Cc4c[nH]c5ccc(O)cc45)C(=O)O)ccc23)cc1` (stereo not given), the cell number change is 23.6%. The AC50 under setting [1] is 29.1 µM [rising, single point].

In the case of `Cc1c(Cl)cccc1NC(=O)CNC(=O)C1CC(=O)N(CCc2ccccc2)C1` (stereo not given), the cell number change came out at 41.2%. The AC50 under setting [2] was 0.0291 µM [rising, full curve, poor fit]. Moreover, the AC50 under setting [1] is 29.1 µM [rising, partial curve, poor fit].

Consider `O=C(NCc1ccccc1)c1onc(CSc2ccc(Cl)cc2)c1C(=O)NCC1CC1`, for which the cell number change was -8.31%. Also, the AC50 under setting [1] is 2.91 µM [falling, single point].

`O=C(CN1C(=O)NC(c2ccc(F)cc2)C1=O)Nc1ccc2c(c1)OCCO2` (stereo not given): the cell number change is -38.4%. Further, under setting [1], the AC50 is 29.1 µM [falling, single point].

Turning to `CC(C)=CC(=O)OCC(=O)Nc1nc(C)c(Cl)cc1Cl`, the cell number change is -0.544%.

As for `O=C(CNC(=O)c1ccco1)N/N=C/c1c[nH]c2ccccc12`, the cell number change was -46.8%. For the same compound, the AC50 under setting [2] was 18.4 µM [falling, partial curve, poor fit]. Besides, the AC50 under setting [1] is 18.4 µM [falling, partial curve, poor fit].

As for `FC(F)(F)c1cc(CCN2C(=S)NC[C@@H]2CC2CCCCC2)cc(C(F)(F)F)c1`, the cell number change was -36.1%. The AC50 under setting [2] was 29.1 µM [falling, single point]. In addition, under setting [1], the AC50 was 29.1 µM [falling, single point].

On to `COc1ccccc1Nc1ncnc2ccc(C)cc12`, for which the AC50 under setting [2] is 0.164 µM [rising, full curve] and the AC50 under setting [1] is 2.06 µM [rising, partial curve, poor fit].

Turning to `O=S(=O)(NCCSCc1ccc(Cl)cc1Cl)c1ccc2c(c1)OCCO2`, the cell number change was -23.3%.

Consider `CC1(C)CC2CC(C)(CN2C(=O)COC(=O)c2cncc(Br)c2)C1` (stereo not given), for which the cell number change is -39.5%. Further, the AC50 under setting [2] was 18.4 µM [falling, single point]. In addition, the half-maximal activity concentration (AC50) under setting [1] is 18.4 µM [falling, single point].

As for `CCCSc1nsc(SCCC)c1C(N)=O`, the cell number change was -0.819%. The AC50 under setting [1] is 6.51 µM [falling, single point].

On to `CCN(CC(=O)Nc1ccccc1C(F)(F)F)C(=O)CCc1c(C)[nH]c(=O)c(C#N)c1C`, for which the cell number change worked out at 4.5%. Besides, the AC50 under setting [1] was 0.651 µM [rising, partial curve, poor fit].

Turning to `Cc1occc1C(=O)NNC(=S)NCC(C)C`, under setting [2], the AC50 is 1.84 µM [rising, partial curve].

Regarding `O=C(c1cc(F)ccc1F)C1CCCN(C(=O)c2ccc3nccnc3c2)C1` (stereo not given), the cell number change is -4.58%. Also, under setting [1], the AC50 is 3.26 µM [falling, single point].

As to `COc1cc(C(F)(F)F)nc(-c2ccccn2)n1`, the cell number change amounted to 18.4%. The AC50 under setting [2] is 6.51 µM [rising, partial curve, poor fit].

Turning to `O=C(CCN1C(=O)/C(=C/c2ccccc2F)SC1=S)Nc1cccnc1`, the cell number change is -7.18%. Moreover, the AC50 under setting [1] is 6.51 µM [falling, single point].

Take `CCc1cccc(NC(=O)CCS(=O)(=O)c2cccc3nonc23)c1`: the cell number change was -32.7%. For the same compound, under setting [2], the AC50 is 29.1 µM [falling, partial curve, poor fit].

For the compound `NNC(=O)c1cc2c(s1)-c1cc(Cl)ccc1SC2`, the cell number change was 9.13%. In addition, the AC50 under setting [1] was 2.06 µM [rising, full curve, poor fit].

On to `CCN(CC)c1ccc(/C=N/NC(=O)c2c[nH]c3ccccc23)cc1`, for which the cell number change was found to be 2.22%. Under setting [1], the AC50 is 10.3 µM [rising, partial curve, poor fit].
